Assay: PD1 extraction from murine lung, LC-PDA-MS-MS quantitation
Parameters: species or system mice
Details: DHA 100 μg, 40 min, 37° C.

## CC/C=C\C[C@H](O)\C=C/C=C/C=C/C(O)C/C=C\C/C=C\CCC(=O)O (stereo in doubt) [PD1, 10,17S-dihydroxy-4,7,15,19-cis-11,13-trans-docosahexaenoic acid]
  increase of PD1 recovery on addition of exogenous DHA to homogenate of inflamed lungs ex vivo: approximately 5 fold
